Out of some 300,000 compounds screened, about 5,400 (1.8%) were called active. Inconclusive means that the source gave no clear call. Such entries were picked first, then a sample of the others. Calls come from the whole dose curve; tested in HEK293 cells. A potency beside an inconclusive call is a rough fit, not a confirmed value.
Test: qHTS for inhibitors of binding or entry into cells for Marburg Virus
Details: Marburg virus pseudotyped entry inhibition, cell reporter; series mostly up to 37.8 µM
With Cc1cccc(-c2nc(SCC(=O)Nc3ccc4c(c3)OCO4)c(-c3ccccc3)[nH]2)c1 the Potency was “inactive”. For O=C(CCn1c(=O)c2cccn2c2cccnc21)N1CCN(c2cccc(Cl)c2)CC1, the Potency was inconclusive: 35.5 µM [inhibitor, single point]. For COc1ccc(CNC(=O)c2cc(-c3ccco3)on2)cc1, the Potency was “inactive”. In the case of NC(=O)C1CCN(C(=O)CCSCc2ccc(Cl)c(Cl)c2)CC1, the Potency is reported as inconclusive: 15.8 µM [inhibitor, single point]. For Cc1cc(O)c(C(C)C)cc1C1(c2cc(C(C)C)c(O)cc2C)OC(=O)c2ccccc21, the Potency was inconclusive: 10 µM [inhibitor, partial curve, poor fit]. In the case of CCOc1ccc(C2c3[nH]c4ccccc4c3CCN2CCCn2cccn2)cc1 (stereo not drawn), the Potency is reported as inconclusive: 35.5 µM [inhibitor, single point]. In the case of Cc1cccc(N2CCCn3c2nc2c3c(=O)n(CCN3CCOCC3)c(=O)n2C)c1, the Potency is reported as inconclusive: 8.2 µM [inhibitor, partial curve]. With Cc1cc(NC(=O)COC(=O)c2ccc(OC(F)(F)F)cc2)no1 the Potency was inconclusive: 6.31 µM [inhibitor, single point]. With CN(C)C(CNc1ccc(C(F)(F)F)cn1)c1ccccc1 (stereo not drawn) the Potency was inconclusive: 14.1 µM [inhibitor, partial curve, poor fit]. In the case of NC(=O)NC(=O)COC(=O)CCCc1c[nH]c2ccccc12, the Potency is reported as “inactive”. For CCc1ccc(-n2c(=O)c3c4c(sc3n(CC(=O)NC(C)CC)c2=O)CCCC4)cc1 (stereo not drawn), the Potency was inconclusive: 0.562 µM [activator, full curve, poor fit]. In the case of CCCc1ccc(OCCNC(=O)C2CCCCC2)cc1, the Potency is reported as inconclusive: 35.5 µM [activator, single point]. For CCN(CC)S(=O)(=O)c1ccc(C(=O)NCCc2cc3c(OC)ccc(OC)c3[nH]c2=O)cc1, the Potency was inconclusive: 14.1 µM [inhibitor, single point]. In the case of Cn1c(SCC(=O)NCCc2ccccc2)nnc1-c1ccco1, the Potency is reported as inconclusive: 29.1 µM [inhibitor, single point]. For C=CC[N+]1(CC#CCOC(c2ccccc2)c2ccccc2)CCOCC1, the Potency was “inactive”. For COCCCNC(=O)CSc1nc(-c2ccccc2)[nH]c1-c1ccc(C)cc1, the Potency was inconclusive: 7.08 µM [inhibitor, partial curve, poor fit]. For CCn1c(=O)cc(SCC(=O)NCCc2ccc(OC)cc2OC)c2ccccc21, the Potency was “inactive”. For COCCNC(=O)Cn1c(=O)n(CCCC(=O)NCc2ccc3c(c2)OCO3)c(=O)c2sccc21, the Potency was inconclusive: 15.8 µM [activator, single point]. With COc1cccc(NC(=S)N(CCc2c(C)[nH]c3ccc(C)cc23)Cc2cccs2)c1 the Potency was inconclusive: 10.3 µM [inhibitor, partial curve, poor fit]. For Cn1c(N2CCN(C(c3ccccc3)c3ccccc3)CC2)nc2ccccc21, the Potency was inconclusive: 11.2 µM [inhibitor, partial curve, poor fit]. In the case of C/C(=N/NC(=O)c1ccoc1C)c1cccc(NC(=O)C(F)(F)F)c1, the Potency is reported as inconclusive: 2.91 µM [activator, partial curve, poor fit]. For CS(=O)(=O)N1CCCC(C(=O)Nc2ccccc2Cl)C1 (stereo not drawn), the Potency was inconclusive: 0.891 µM [inhibitor, partial curve, poor fit]. For O=C(Oc1ccc(Cl)c2cccnc12)N1CCCCCC1, the Potency was “inactive”. With CC(C)(C)c1ccc(C(=O)CCCN2CCC(OC(c3ccccc3)c3ccccc3)CC2)cc1 the Potency was inconclusive: 5.17 µM [inhibitor, full curve, poor fit]. In the case of CCN(CC)c1ccc(C(=O)OCC(=O)Nc2cccc(S(=O)(=O)NC3=NCCCCC3)c2)cc1, the Potency is reported as inconclusive: 14.1 µM [inhibitor, partial curve, poor fit]. With Cc1cc2ncn(/N=C/c3ccc([N+](=O)[O-])o3)c2cc1C the Potency was inconclusive: 29.1 µM [inhibitor, single point]. In the case of O=C1CC(c2ccc(Cl)cc2)Sc2nc(-c3ccc(F)cc3)nn21 (stereo not drawn), the Potency is reported as “inactive”. For O=C(/C=C/c1ccc2c(c1)OCO2)N1CCN(c2ccc(Cl)cc2)CC1, the Potency was inconclusive: 1.26 µM [activator, single point]. For COc1ccc(-c2nc(NC(=O)c3ccc(OCC(=O)Nc4ccc(F)cc4)c(OC)c3)sc2C)cc1, the Potency was inconclusive: 35.5 µM [inhibitor, single point]. In the case of COc1ccc(Br)c(C(=O)Nc2nc3ccccc3[nH]2)c1, the Potency is reported as inconclusive: 35.5 µM [activator, single point]. With O=C(CCN1C(=O)[C@@H]2Cc3ccccc3CN2C1=O)NCc1ccc(Cl)cc1 the Potency was inconclusive: 25.1 µM [inhibitor, single point]. With C[C@@]12CC(=O)NC1N(C(=O)c1cccc(C(F)(F)F)c1)C(c1ccccc1OC(=O)c1cccc(C(F)(F)F)c1)C2 (stereo partly drawn) the Potency was inconclusive: 10 µM [inhibitor, partial curve]. With O=[N+]([O-])c1ccc(C2Nc3cccc4cccc(c34)N2)cc1 the Potency was “inactive”. With CC(C)N(C(=O)COC(=O)c1ccccc1C(=O)c1ccc(Cl)c([N+](=O)[O-])c1)C(C)C the Potency was inconclusive: 17.8 µM [inhibitor, single point]. With CC(=O)N1C(=O)NC(c2ccccc2)=C([N+](=O)[O-])C1c1ccccc1 (stereo not drawn) the Potency was inconclusive: 3.98 µM [inhibitor, full curve, poor fit]. For COC(=O)c1cc(Cn2nc(C(=O)O)c3ccccc3c2=O)oc1C, the Potency was inconclusive: 6.31 µM [inhibitor, single point]. In the case of Cc1cccc(/C=N/NC(=O)c2cccc([N+](=O)[O-])c2)n1, the Potency is reported as “inactive”. For CCOc1ccccc1NC(=O)C1CCCN(S(=O)(=O)c2cccc3nsnc23)C1 (stereo not drawn), the Potency was inconclusive: 35.5 µM [inhibitor, single point]. In the case of C=CCn1nnc2sc3c(c2c1=O)CCC(C)C3 (stereo not drawn), the Potency is reported as “inactive”. With O=C(NCC1CCN(Cc2ccccc2Cl)CC1)Nc1cccc(Cl)c1 the Potency was inconclusive: 35.5 µM [inhibitor, single point]. For Oc1cccc(C=NCc2ccccc2)c1O, the Potency was “inactive”. With O=C(NNC(=O)C12CC3CC(CC(C3)C1)C2)c1ccco1 the Potency was inconclusive: 17.8 µM [activator, single point]. With Cc1nnc2ccc(-c3cccc(NC(=O)c4ccc(Br)o4)c3)nn12 the Potency was inconclusive: 4.47 µM [inhibitor, full curve]. For N#CC(=C1C=CC(=NO)C(Cl)=C1)c1ccc(Cl)cc1, the Potency was “inactive”. In the case of O=C(NC(=S)NNC(=O)c1cccs1)c1ccco1, the Potency is reported as “inactive”. For CCOC(=O)c1cnc2ccccc2c1Nc1ccc(C(=O)O)cc1, the Potency was inconclusive: 2.24 µM [inhibitor, partial curve, poor fit]. For C/C(=N\NC(=O)c1cccc([N+](=O)[O-])c1)c1cccc(NC(=O)C2CC2)c1, the Potency was “inactive”. For COCC(=O)Nc1ccccc1C(=O)Nc1ccc(OC)cc1, the Potency was “inactive”. For COc1ccc(CN(CCC(c2ccccc2)C2CCOC(C)(C)C2)C(C)=O)cc1 (stereo not drawn), the Potency was inconclusive: 35.5 µM [inhibitor, single point]. In the case of COc1ccc(-n2c(O)c(/C(C)=N/Nc3ccccc3)c(=O)[nH]c2=O)cc1, the Potency is reported as inconclusive: 2.24 µM [inhibitor, full curve, poor fit]. For COc1ccc(C=NOCC(=O)OCC(=O)Nc2ccc(OC)cc2)cc1, the Potency was “inactive”. For Cn1c(CN2CCCCC2)nc2cc(NC(=O)c3ccc(F)cc3)ccc21, the Potency was inconclusive: 3.26 µM [inhibitor, full curve]. For CCOC(=O)C1(Cc2ccccc2)NC(c2ccccc2F)C2C(=O)N(CC)C(=O)C21 (stereo not drawn), the Potency was “inactive”. With CCCCn1nc2cc(C(=O)NCc3ccc(C(F)(F)F)cc3C(F)(F)F)ccc2c1OCC the Potency was “inactive”. With Cn1c(COc2ccc(Br)cc2)nnc1SC1CCc2ccccc2C1=O (stereo not drawn) the Potency was inconclusive: 35.5 µM [inhibitor, single point]. In the case of Nc1nonc1C(=O)N/N=C/c1ccc(Br)o1, the Potency is reported as “inactive”. For CC(CNc1ccccc1O)C(=O)O (stereo not drawn), the Potency was “inactive”. With O=C(O)CCc1ccc(-c2ccccc2)n1CC(=O)Nc1ccccc1C(F)(F)F the Potency was “inactive”. For O=C(Nc1ccccc1Br)C1CC(=O)N(c2ccc3c4c(cccc24)CC3)C1 (stereo not drawn), the Potency was active: 10 µM. With CCCn1c(C(O)c2ccc(OC)cc2)nc2ccccc21 (stereo not drawn) the Potency was “inactive”. With C=CCNC(=O)c1ccc(-c2nc(-c3ccccc3)cs2)cc1 the Potency was inconclusive: 0.82 µM [activator, single point]. With COc1ccc(Br)cc1/C=N/NC(=O)c1ccc(COc2ccc3c(c2)CCC3)o1 the Potency was inconclusive: 12.6 µM [activator, partial curve, poor fit]. In the case of CN1CCN(c2ccc(S(=O)(=O)Nc3ccccc3)cc2[N+](=O)[O-])CC1, the Potency is reported as inconclusive: 35.5 µM [inhibitor, single point]. With O=C(O)CCn1cc(/C=N/O)c(-c2cccc([N+](=O)[O-])c2)n1 the Potency was inconclusive: 20 µM [activator, partial curve, poor fit]. In the case of CCC(=O)N(C)CCc1cc2c(c(OC)c1/C=N/Nc1ccc(C(=O)O)cc1)OCO2, the Potency is reported as inconclusive: 31.6 µM [activator, single point]. In the case of CC1CC(C)CN(C(=O)COC(=O)c2cc([N+](=O)[O-])ccc2N2CCOCC2)C1 (stereo not drawn), the Potency is reported as inconclusive: 6.31 µM [inhibitor, single point]. For Cc1ccnc(SCC(=O)N2CCc3ccccc32)n1, the Potency was inconclusive: 35.5 µM [activator, single point]. In the case of S=c1nccc(-c2ccc3c(c2)CCO3)[nH]1, the Potency is reported as inconclusive: 2.82 µM [activator, single point].

Source: PubChem BioAssay AID540276 (National Center for Advancing Translational Sciences (NCATS), 2011)
Potency is the fitted concentration of half-maximal effect.
